Measurements as given in patent US10307403B2, “Polymorphic forms and process” (GALECTO BIOTECH AB, priority 2015, dated 2019).

Experiment: Microbial limits within ICH stability study
[1] = Initial, criterion absent in 1 g

OC[C@H]1O[C@@H](S[C@@H]2O[C@H](CO)[C@H](O)[C@H](n3cc(-c4cccc(F)c4)nn3)[C@H]2O)[C@H](O)[C@@H](n2cc(-c3cccc(F)c3)nn2)[C@H]1O [Form 1, 3,3′-Dideoxy-3,3′-bis-[4-(3-fluorophenyl)-1H-1,2,3-triazol-1-yl]-1,1′-sulfanediyl-di-β-D-galactopyranoside]
absent/g: Microbial Limits P. aeruginosa (6 Months @ 40° C./75 RH) | Microbial Limits S. aureus (6 Months @ 40° C./75 RH) | Microbial Limits P. aeruginosa (12 Months 25° C./60 RH) | Microbial Limits S. aureus (12 Months 25° C./60 RH) | Microbial Limits P. aeruginosa [1] | Microbial Limits S. aureus [1]
